This note sets out measurements from PubChem BioAssay AID212 (DTP/NCI, 2004).

The list does not hold the whole screen: it gathers tests that were run many times, whatever their T/C, doses with no T/C, and many T/C values between a quarter and a half above the control. Further doses and runs are listed elsewhere. T/C: endpoint of the treated group in % of that of the vehicle group. Schedule codes are those of the source, taken here to give the interval after Q, in days (D) or hours (H), and the number of doses after X. Some T/C values carry the count of animals alive at the toxicity check (mostly the fifth day); where none is given, no animal had died by that day. Some doses were run more than once; the values are given in rising order. Some doses have a count of surviving animals in place of a T/C: the source files T/C as zero there, which appears to mark a toxic dose or a test without result, not a measured value. Counts of survivors are from the toxicity check (mostly the fifth day) where no day follows; animals may have died later. Some structures stand for samples that the source files as different forms (salt, stereo form or complex); doses refer to the form tested. Where survival is the endpoint, this PubChem deposit counts one and a half times the control or more as active, and values a quarter to a half above the control carry no call in these data; other NCI protocols may use other cut-offs.

The subject of the assay is BDF1 mice, colon carcinoma 38 sc, T/C %. Briefly: NCI In Vivo Anticancer Drug Screen. Data for tumor model Colon Carcinoma 38 (subcutaneous) in B6D2F1 (BDF1) mice. The essentials: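 T/C readout: treated group (T) measurement over vehicle control group (C) measurement. Endpoint is survival or tumor size in mice bearing a transplanted tumor.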

As to `COc1cc(NCc2ccc3nc(N)nc(N)c3c2C)cc(OC)c1OC`, the T/C reads like this: (T/C endpoint: median survival time, dose: 2.0 mg/kg/injection, schedule: Q04HX021 (ip), vehicle: sodium bicarbonate, higher T/C = longer survival) 140 % of control; (T/C endpoint: median survival time, dose: 3.2 mg/kg/injection, schedule: Q04HX021 (ip), vehicle: sodium bicarbonate, higher T/C = longer survival) 140 % of control; (T/C endpoint: median survival time, dose: 13.3 mg/kg/injection, schedule: Q06HX012 (oral), vehicle: sodium bicarbonate, higher T/C = longer survival) 132 % of control [9 of 10 alive on day 70]; (T/C endpoint: median survival time, dose: 13.3 mg/kg/injection, schedule: Q06HX014 (ip), vehicle: sodium bicarbonate, higher T/C = longer survival) 127 % of control [8 of 10 alive on day 70]. Besides, the survivor count is reported as 4 of 10 on day 59 (T/C endpoint: median survival time, dose: 13.5 mg/kg/injection, schedule: Q04HX021 (ip), vehicle: sodium bicarbonate, higher T/C = longer survival); 5 of 10 on day 70 (T/C endpoint: median survival time, dose: 20.0 mg/kg/injection, schedule: Q06HX014 (ip), vehicle: sodium bicarbonate, higher T/C = longer survival); 1 of 10 on day 70 (T/C endpoint: median survival time, dose: 30.0 mg/kg/injection, schedule: Q06HX012 (oral), vehicle: sodium bicarbonate, higher T/C = longer survival); 0 of 5 on day 70 (T/C endpoint: median survival time, dose: 30.0 mg/kg/injection, schedule: Q06HX014 (ip), vehicle: sodium bicarbonate, higher T/C = longer survival); 2 of 5 on day 70 (T/C endpoint: median survival time, dose: 45.0 mg/kg/injection, schedule: Q06HX012 (oral), vehicle: sodium bicarbonate, higher T/C = longer survival); 6 of 10 on day 70 (T/C endpoint: median survival time, dose: 100.0 mg/kg/injection, schedule: Q07DX002 (ip), vehicle: sodium bicarbonate, higher T/C = longer survival). The survivor count runs as follows: (T/C endpoint: median survival time, dose: 150.0 mg/kg/injection, schedule: Q07DX002 (ip), vehicle: sodium bicarbonate, higher T/C = longer survival) 2 of 9 on day 70; (T/C endpoint: median survival time, dose: 225.0 mg/kg/injection, schedule: Q07DX002 (ip), vehicle: sodium bicarbonate, higher T/C = longer survival) 0 of 10 on day 70; (T/C endpoint: median survival time, dose: 335.0 mg/kg/injection, schedule: Q07DX002 (ip), vehicle: sodium bicarbonate, higher T/C = longer survival) 0 of 5 on day 70; (T/C endpoint: median tumor weight (est.), dose: 148.0 mg/kg/injection, schedule: Q07DX002 (ip), vehicle: water, higher T/C = larger tumour) 4 of 10 on day 20; (T/C endpoint: median tumor weight (est.), dose: 157.0 mg/kg/injection, schedule: Q07DX002 (ip), vehicle: water, higher T/C = larger tumour) 0 of 10 on day 20; (T/C endpoint: median tumor weight (est.), dose: 180.0 mg/kg/injection, schedule: Q07DX002 (ip), vehicle: water, higher T/C = larger tumour) 5 of 10 on day 20. The survivor count is, setting by setting: (T/C endpoint: median tumor weight (est.), dose: 200.0 mg/kg/injection, schedule: Q07DX002 (ip), vehicle: water, higher T/C = larger tumour) 5 of 10 on day 20; (T/C endpoint: median tumor weight (est.), dose: 222.0 mg/kg/injection, schedule: Q07DX002 (ip), vehicle: water, higher T/C = larger tumour) 0 of 10 on day 20; (T/C endpoint: median tumor weight (est.), dose: 236.0 mg/kg/injection, schedule: Q07DX002 (ip), vehicle: water, higher T/C = larger tumour) 0 of 10 on day 20; (T/C endpoint: median tumor weight (est.), dose: 270.0 mg/kg/injection, schedule: Q07DX002 (ip), vehicle: water, higher T/C = larger tumour) 0 of 10 on day 20; (T/C endpoint: median tumor weight (est.), dose: 334.0 mg/kg/injection, schedule: Q07DX002 (ip), vehicle: water, higher T/C = larger tumour) 0 of 10 on day 20; (T/C endpoint: median tumor weight (est.), dose: 354.0 mg/kg/injection, schedule: Q07DX002 (ip), vehicle: water, higher T/C = larger tumour) 0 of 10 on day 20. Also, the survivor count is reported as 0 of 5 on day 20 (T/C endpoint: median tumor weight (est.), dose: 400.0 mg/kg/injection, schedule: Q07DX002 (ip), vehicle: water, higher T/C = larger tumour); 0 of 10 on day 20 (T/C endpoint: median tumor weight (est.), dose: 405.0 mg/kg/injection, schedule: Q07DX002 (ip), vehicle: water, higher T/C = larger tumour); 0 of 10 on day 20 (T/C endpoint: median tumor weight (est.), dose: 501.0 mg/kg/injection, schedule: Q07DX002 (ip), vehicle: water, higher T/C = larger tumour); 0 of 10 on day 20 (T/C endpoint: median tumor weight (est.), dose: 531.0 mg/kg/injection, schedule: Q07DX002 (ip), vehicle: water, higher T/C = larger tumour).

Consider `Nc1nc2nc[nH]c2c(=O)[nH]1`, for which the survivor count is reported as 1 of 10 on day 20 (T/C endpoint: median tumor weight (est.), dose: 400.0 mg/kg/injection, schedule: Q07DX002 (ip), vehicle: suspension in saline, higher T/C = larger tumour); 0 of 10 on day 20 (T/C endpoint: median tumor weight (est.), dose: 800.0 mg/kg/injection, schedule: Q07DX002 (ip), vehicle: suspension in saline, higher T/C = larger tumour); 0 of 10 on day 20 (T/C endpoint: median tumor weight (est.), dose: 1600.0 mg/kg/injection, schedule: Q07DX002 (ip), vehicle: suspension in saline, higher T/C = larger tumour).

`COc1cc([C@@H]2c3cc4c(cc3[C@@H](OC3OC5CO[C@@H](c6cccs6)OC5C(O)C3O)[C@H]3COC(=O)[C@H]23)OCO4)cc(OC)c1O` (some centres undefined): under “T/C endpoint: median tumor weight (est.), dose: 32.0 mg/kg/injection, schedule: Q07DX002 (ip), vehicle: suspension in saline, evaluated on day 20, higher T/C = larger tumour”, the T/C was 127 % of control. Under “T/C endpoint: median tumor weight (est.), dose: 32.0 mg/kg/injection, schedule: Q07DX002 (ip), vehicle: suspension in saline, higher T/C = larger tumour”, the survivor count is 4 of 10 on day 20.

In the case of `CN(C)C=O`, the T/C reads like this: (T/C endpoint: median tumor weight (est.), dose: 200.0 mg/kg/injection, schedule: Q07DX002 (ip), vehicle: saline, evaluated on day 20, higher T/C = larger tumour) 143 % of control; (T/C endpoint: median tumor weight (est.), dose: 800.0 mg/kg/injection, schedule: Q07DX002 (ip), vehicle: saline, evaluated on day 20, higher T/C = larger tumour) 138 % of control. The survivor count was 5 of 10 on day 20 (T/C endpoint: median tumor weight (est.), dose: 1600.0 mg/kg/injection, schedule: Q07DX002 (ip), vehicle: saline, higher T/C = larger tumour) and 3 of 10 on day 20 (T/C endpoint: median tumor weight (est.), dose: 3200.0 mg/kg/injection, schedule: Q07DX002 (ip), vehicle: saline, higher T/C = larger tumour).

Take `CCOC(=O)C1=C(C#N)C2(CCC(OCc3ccccc3)CC2)C(=O)O1` (centres undefined): the T/C by setting is: (T/C endpoint: median tumor weight (est.), dose: 50.0 mg/kg/injection, schedule: Q07DX002 (ip), vehicle: suspension in saline, evaluated on day 20, higher T/C = larger tumour) 149 % of control; (T/C endpoint: median tumor weight (est.), dose: 200.0 mg/kg/injection, schedule: Q07DX002 (ip), vehicle: suspension in saline, evaluated on day 20, higher T/C = larger tumour) 145 % of control.

`COC1CC(C)C(OC)c2cc(O)cc(c2O)NC(=O)/C(C)=C/C=C\C(C)C(OC(N)=O)/C(C)=C\C(C)C1OC` (centres undefined): the T/C (T/C endpoint: median tumor weight (est.), dose: 6.25 mg/kg/injection, schedule: Q07DX002 (ip), vehicle: saline + alcohol, evaluated on day 20, higher T/C = larger tumour) is 145 % of control. Also, the survivor count (T/C endpoint: median tumor weight (est.), dose: 50.0 mg/kg/injection, schedule: Q07DX002 (ip), vehicle: saline + alcohol, higher T/C = larger tumour) was 5 of 10 on day 20.

Take `CCC1CC2CN(CCc3c([nH]c4ccccc34)C(C(=O)OC)(c3cc4c(cc3OC)N(C)C3C(O)(C(=O)OC)C(OC(C)=O)C5(CC)C=CCN6CCC43C65)C2)C1` (centres undefined): the T/C runs as follows: (T/C endpoint: median tumor weight (est.), dose: 2.0 mg/kg/injection, schedule: Q07DX002 (ip), vehicle: suspension in saline, evaluated on day 20, higher T/C = larger tumour) 135 % of control; (T/C endpoint: median tumor weight (est.), dose: 4.0 mg/kg/injection, schedule: Q07DX002 (ip), vehicle: suspension in saline, evaluated on day 20, higher T/C = larger tumour) 144 % of control. In addition, the survivor count (T/C endpoint: median tumor weight (est.), dose: 8.0 mg/kg/injection, schedule: Q07DX002 (ip), vehicle: suspension in saline, higher T/C = larger tumour) was 6 of 10 on day 20.

`C=C(C)C(=O)O[C@H]1CC2=C[C@@H](C[C@@]3(C)O[C@@H]3[C@H]3OC(=O)C(=C)[C@@H]31)OC2=O`: the T/C (T/C endpoint: median tumor weight (est.), dose: 12.5 mg/kg/injection, schedule: Q07DX002 (ip), vehicle: Klucel (hydroxypropylcellulose) (HPC), evaluated on day 20, higher T/C = larger tumour) was 128 % of control. The survivor count is, setting by setting: (T/C endpoint: median tumor weight (est.), dose: 100.0 mg/kg/injection, schedule: Q07DX002 (ip), vehicle: Klucel (hydroxypropylcellulose) (HPC), higher T/C = larger tumour) 4 of 10 on day 20; (T/C endpoint: median tumor weight (est.), dose: 200.0 mg/kg/injection, schedule: Q07DX002 (ip), vehicle: Klucel (hydroxypropylcellulose) (HPC), higher T/C = larger tumour) 0 of 10 on day 20.

Turning to `CN=C(N)N/N=C(\C)c1ccc2oc3ccc(/C(C)=N/NC(N)=NC)cc3c2c1`, the survivor count reads like this: (T/C endpoint: median tumor weight (est.), dose: 200.0 mg/kg/injection, schedule: Q07DX002 (ip), vehicle: saline with Tween-80, higher T/C = larger tumour) 5 of 10 on day 20; (T/C endpoint: median tumor weight (est.), dose: 400.0 mg/kg/injection, schedule: Q07DX002 (ip), vehicle: saline with Tween-80, higher T/C = larger tumour) 0 of 10 on day 20.

Consider `CC1=C[S+](c2ccccc2)c2cccc3cc4ccccc4c1c23` (centres undefined), for which the T/C is 140 % of control (T/C endpoint: median tumor weight (est.), dose: 0.12 mg/kg/injection, schedule: Q07DX002 (ip), vehicle: saline with Tween-80, evaluated on day 20, higher T/C = larger tumour) and 126 % of control (T/C endpoint: median tumor weight (est.), dose: 0.25 mg/kg/injection, schedule: Q07DX002 (ip), vehicle: saline with Tween-80, evaluated on day 20, higher T/C = larger tumour).

For `[N-]=[N+]=CC(=O)CCC(N)C(=O)O` (centres undefined), the T/C (T/C endpoint: median tumor weight (est.), dose: 6.25 mg/kg/injection, schedule: Q07DX003 (ip), vehicle: saline, evaluated on day 20, higher T/C = larger tumour) was 26 [9 of 10 alive], 49, 64, 69 % of control; the T/C (T/C endpoint: median tumor weight (est.), dose: 12.5 mg/kg/injection, schedule: Q07DX003 (ip), vehicle: saline, evaluated on day 20, higher T/C = larger tumour) is 21 [9 of 10 alive], 28, 42, 50 % of control; the T/C (T/C endpoint: median tumor weight (est.), dose: 25.0 mg/kg/injection, schedule: Q07DX003 (ip), vehicle: saline, evaluated on day 20, higher T/C = larger tumour) was 9, 17 [9 of 10 alive], 27 [9 of 10 alive], 30 % of control. Moreover, the survivor count (T/C endpoint: median tumor weight (est.), dose: 50.0 mg/kg/injection, schedule: Q07DX003 (ip), vehicle: saline, higher T/C = larger tumour) is 5 of 10 and the survivor count (T/C endpoint: median tumor weight (est.), dose: 100.0 mg/kg/injection, schedule: Q07DX003 (ip), vehicle: saline, higher T/C = larger tumour) is listed as 5 of 10.
